# Experimental data reported in publication PMC10869442.
# These are yes or no findings as the source states them, for the method shown. A result given as binding can be weak or reduced; the word gives no strength. Where a sequence is shown, tags or fusion partners need not be part of it. For some of these results: In cells and extracts the contact can be indirect.
# Experiments:
# RIPK-HA (A. thaliana) = molecular target: T1, RIPK-HA (A. thaliana) (UniProt Q9ZUF4); assay: co-IP; extracts of N. benthamiana leaves coexpressing HA-tagged RPM1, RIPK or RPS2 and GFP-fused RIN4/NOI proteins, 3 d after infiltration; anti-HA antibody on Dynabeads protein G, overnight at 4 °C; CoIP buffer 50 mM Tris HCl, 125 mM NaCl, 0.1% tween-20, 1 mM DTT, 10% glycerol, pH 7.4; anti-GFP blot
# T1 sequence: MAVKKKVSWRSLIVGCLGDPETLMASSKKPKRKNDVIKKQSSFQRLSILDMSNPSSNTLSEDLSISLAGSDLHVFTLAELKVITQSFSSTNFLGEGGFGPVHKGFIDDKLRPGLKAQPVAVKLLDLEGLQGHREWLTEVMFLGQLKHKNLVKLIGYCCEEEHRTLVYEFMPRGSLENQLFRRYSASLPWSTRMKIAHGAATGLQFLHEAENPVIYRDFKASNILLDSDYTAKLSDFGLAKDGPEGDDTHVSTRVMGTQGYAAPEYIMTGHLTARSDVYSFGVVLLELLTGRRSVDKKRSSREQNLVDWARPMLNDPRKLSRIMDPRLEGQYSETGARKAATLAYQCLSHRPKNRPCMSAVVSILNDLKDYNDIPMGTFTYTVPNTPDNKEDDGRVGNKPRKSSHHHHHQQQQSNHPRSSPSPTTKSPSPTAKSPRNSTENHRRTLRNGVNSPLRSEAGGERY
# RPM1-HA (A. thaliana) = molecular target: T2, RPM1-HA (A. thaliana) (UniProt Q39214); assay: as above
# T2 sequence: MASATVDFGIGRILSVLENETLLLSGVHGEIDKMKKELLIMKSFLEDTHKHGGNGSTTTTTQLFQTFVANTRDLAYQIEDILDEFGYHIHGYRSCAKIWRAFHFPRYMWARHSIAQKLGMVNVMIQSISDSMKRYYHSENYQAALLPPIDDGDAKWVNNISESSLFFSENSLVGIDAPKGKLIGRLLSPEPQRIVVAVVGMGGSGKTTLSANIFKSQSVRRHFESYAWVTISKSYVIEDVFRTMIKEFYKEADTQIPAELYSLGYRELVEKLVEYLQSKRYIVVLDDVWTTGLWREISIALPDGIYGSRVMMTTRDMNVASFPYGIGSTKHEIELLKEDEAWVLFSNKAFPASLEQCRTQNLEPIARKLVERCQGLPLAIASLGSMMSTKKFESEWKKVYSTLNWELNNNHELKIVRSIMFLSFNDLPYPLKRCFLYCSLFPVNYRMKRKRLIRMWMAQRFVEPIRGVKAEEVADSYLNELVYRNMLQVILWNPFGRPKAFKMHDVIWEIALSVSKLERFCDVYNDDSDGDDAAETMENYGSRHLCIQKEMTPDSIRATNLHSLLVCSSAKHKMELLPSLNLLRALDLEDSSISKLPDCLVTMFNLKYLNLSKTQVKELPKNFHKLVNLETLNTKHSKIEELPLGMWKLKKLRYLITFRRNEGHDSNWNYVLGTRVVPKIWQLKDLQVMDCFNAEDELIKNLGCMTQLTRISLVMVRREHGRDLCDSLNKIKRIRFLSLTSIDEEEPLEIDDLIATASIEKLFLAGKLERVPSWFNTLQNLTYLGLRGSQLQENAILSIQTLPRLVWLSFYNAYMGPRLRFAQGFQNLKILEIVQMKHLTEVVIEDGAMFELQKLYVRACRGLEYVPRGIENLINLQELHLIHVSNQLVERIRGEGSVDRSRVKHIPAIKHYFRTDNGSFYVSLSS
# RPS2-HA (A. thaliana) = molecular target: T3, RPS2-HA (A. thaliana) (UniProt Q42484); assay: as above
# T3 sequence: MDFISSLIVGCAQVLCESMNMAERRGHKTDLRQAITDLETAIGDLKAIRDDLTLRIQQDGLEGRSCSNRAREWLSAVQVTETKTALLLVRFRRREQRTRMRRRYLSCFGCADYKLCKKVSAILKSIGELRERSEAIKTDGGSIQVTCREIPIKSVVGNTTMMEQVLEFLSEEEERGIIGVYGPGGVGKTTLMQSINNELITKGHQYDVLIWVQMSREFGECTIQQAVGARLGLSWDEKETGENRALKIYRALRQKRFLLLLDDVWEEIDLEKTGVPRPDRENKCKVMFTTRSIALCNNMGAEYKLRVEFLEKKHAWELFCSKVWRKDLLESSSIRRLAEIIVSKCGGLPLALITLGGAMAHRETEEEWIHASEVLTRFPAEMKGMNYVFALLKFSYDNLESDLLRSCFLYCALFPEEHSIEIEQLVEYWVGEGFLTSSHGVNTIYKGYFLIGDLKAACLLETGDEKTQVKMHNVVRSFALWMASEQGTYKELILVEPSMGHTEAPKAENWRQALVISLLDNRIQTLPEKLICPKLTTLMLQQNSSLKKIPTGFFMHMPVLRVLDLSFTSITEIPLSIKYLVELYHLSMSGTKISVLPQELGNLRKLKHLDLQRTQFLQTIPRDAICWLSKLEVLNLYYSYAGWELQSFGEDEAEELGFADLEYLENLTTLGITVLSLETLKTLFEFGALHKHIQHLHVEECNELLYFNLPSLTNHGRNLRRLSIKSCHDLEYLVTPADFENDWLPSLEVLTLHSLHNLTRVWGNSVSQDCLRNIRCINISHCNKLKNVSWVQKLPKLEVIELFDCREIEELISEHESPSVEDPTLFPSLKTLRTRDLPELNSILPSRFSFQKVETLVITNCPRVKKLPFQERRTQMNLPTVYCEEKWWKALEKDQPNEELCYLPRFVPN
# [1] = molecular target: T4, RIPK (RPM1-induced protein kinase), MYTH bait fused to the split-ubiquitin Cub domain (A. thaliana) (UniProt Q9ZUF4); assay: two-hybrid; split-ubiquitin membrane yeast two-hybrid (MYTH) in S. cerevisiae NMY51; RIN4-like/NOIs as prey (Nub), RIPK, RPM1 and RPS2 as baits (Cub); growth on DOB+CSM-L-W-H with different concentrations of 3-AT
# T4 sequence: T1 sequence
# [2] = molecular target: T5, RPS2 (R protein), MYTH bait fused to the split-ubiquitin Cub domain (A. thaliana) (UniProt Q42484); assay: as above
# T5 sequence: T3 sequence
binding (RIPK-HA (A. thaliana)),binding (RPM1-HA (A. thaliana)),binding (RPS2-HA (A. thaliana)),binding [1],binding [2],Substance
binds,binds weakly,,,,NOI10 fused to GFP (A. thaliana)
binds,binds,binds,,,NOI11 fused to GFP (A. thaliana)
,,,no binding,binds weakly,"NOI3 (RIN4-like/NOI protein), MYTH prey fused to the split-ubiquitin Nub domain (A. thaliana)"
,,,binds,binds,"NOI11 (RIN4-like/NOI protein), MYTH prey fused to the split-ubiquitin Nub domain (A. thaliana)"
,,,binds,binds,"NOI10 (RIN4-like/NOI protein), MYTH prey fused to the split-ubiquitin Nub domain (A. thaliana)"
,,,no binding,binds weakly,"NOI5 (RIN4-like/NOI protein), MYTH prey fused to the split-ubiquitin Nub domain (A. thaliana)"
